From the supplement of paper PMC12595434, “Development of retinoid nuclear receptor pathway antagonists through targeting aldehyde dehydrogenase 1A3” (iScience, 2025)
This is one part of the list. The data scatter; read single values as rough.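 Tm was set to 64 °C where no melting was found, and many curves are irregular.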

The chains behind the UniProt entries cited, without tags or fusion partners. Where a name states a change or a piece, a line headed by the entry shows the natural chain unless it says otherwise.
UniProt Q8N5M4: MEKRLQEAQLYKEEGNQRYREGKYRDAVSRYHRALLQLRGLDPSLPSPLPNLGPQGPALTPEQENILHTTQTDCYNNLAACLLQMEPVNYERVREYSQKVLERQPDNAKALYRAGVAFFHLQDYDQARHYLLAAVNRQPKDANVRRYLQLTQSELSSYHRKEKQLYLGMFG
UniProt Q8IZ07: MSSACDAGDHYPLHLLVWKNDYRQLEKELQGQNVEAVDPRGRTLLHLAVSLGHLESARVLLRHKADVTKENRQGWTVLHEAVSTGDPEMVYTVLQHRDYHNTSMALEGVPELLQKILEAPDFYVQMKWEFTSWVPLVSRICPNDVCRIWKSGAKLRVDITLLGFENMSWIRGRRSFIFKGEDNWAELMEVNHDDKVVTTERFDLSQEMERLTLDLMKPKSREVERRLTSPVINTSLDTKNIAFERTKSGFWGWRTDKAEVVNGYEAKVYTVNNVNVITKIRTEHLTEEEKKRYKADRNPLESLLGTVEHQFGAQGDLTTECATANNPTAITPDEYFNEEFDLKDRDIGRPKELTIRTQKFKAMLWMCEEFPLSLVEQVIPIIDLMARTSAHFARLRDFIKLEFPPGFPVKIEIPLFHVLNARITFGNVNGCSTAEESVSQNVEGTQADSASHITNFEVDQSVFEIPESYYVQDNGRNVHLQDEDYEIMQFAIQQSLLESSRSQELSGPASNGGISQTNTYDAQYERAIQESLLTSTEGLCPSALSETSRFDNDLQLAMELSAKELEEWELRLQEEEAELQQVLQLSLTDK
UniProt Q8IXQ5, whole entry: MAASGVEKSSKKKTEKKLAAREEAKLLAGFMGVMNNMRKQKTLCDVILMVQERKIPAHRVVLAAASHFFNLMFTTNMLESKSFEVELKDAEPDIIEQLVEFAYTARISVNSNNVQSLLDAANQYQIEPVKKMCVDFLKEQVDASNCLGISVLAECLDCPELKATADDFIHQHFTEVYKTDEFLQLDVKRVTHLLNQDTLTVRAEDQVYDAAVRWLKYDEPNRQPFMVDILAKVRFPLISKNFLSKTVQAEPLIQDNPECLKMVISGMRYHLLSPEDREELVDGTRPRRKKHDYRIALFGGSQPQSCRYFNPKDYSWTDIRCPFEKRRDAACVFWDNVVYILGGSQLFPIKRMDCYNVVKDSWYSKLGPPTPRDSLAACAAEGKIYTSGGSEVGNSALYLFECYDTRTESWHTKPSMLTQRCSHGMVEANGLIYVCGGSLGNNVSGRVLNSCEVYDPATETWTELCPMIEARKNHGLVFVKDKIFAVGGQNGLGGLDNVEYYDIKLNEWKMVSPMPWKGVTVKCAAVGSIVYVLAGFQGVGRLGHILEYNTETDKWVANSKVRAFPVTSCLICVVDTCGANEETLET
UniProt Q8IXI1, whole entry, looked up: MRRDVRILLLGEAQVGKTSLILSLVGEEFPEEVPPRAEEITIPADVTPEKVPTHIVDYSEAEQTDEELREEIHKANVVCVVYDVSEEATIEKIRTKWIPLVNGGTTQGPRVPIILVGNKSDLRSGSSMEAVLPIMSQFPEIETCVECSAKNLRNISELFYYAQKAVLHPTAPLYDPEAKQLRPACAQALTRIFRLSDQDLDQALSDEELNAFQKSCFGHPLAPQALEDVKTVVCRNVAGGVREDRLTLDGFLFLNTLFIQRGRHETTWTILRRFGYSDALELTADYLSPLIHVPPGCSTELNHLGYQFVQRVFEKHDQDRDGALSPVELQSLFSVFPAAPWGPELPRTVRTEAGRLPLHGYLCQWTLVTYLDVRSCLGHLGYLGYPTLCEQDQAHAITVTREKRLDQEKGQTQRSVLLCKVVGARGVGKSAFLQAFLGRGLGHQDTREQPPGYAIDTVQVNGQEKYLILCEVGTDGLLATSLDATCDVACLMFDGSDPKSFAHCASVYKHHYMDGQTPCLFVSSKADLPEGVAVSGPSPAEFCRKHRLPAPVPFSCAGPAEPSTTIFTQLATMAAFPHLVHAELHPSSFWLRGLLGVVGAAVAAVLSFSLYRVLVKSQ
UniProt Q8IV63: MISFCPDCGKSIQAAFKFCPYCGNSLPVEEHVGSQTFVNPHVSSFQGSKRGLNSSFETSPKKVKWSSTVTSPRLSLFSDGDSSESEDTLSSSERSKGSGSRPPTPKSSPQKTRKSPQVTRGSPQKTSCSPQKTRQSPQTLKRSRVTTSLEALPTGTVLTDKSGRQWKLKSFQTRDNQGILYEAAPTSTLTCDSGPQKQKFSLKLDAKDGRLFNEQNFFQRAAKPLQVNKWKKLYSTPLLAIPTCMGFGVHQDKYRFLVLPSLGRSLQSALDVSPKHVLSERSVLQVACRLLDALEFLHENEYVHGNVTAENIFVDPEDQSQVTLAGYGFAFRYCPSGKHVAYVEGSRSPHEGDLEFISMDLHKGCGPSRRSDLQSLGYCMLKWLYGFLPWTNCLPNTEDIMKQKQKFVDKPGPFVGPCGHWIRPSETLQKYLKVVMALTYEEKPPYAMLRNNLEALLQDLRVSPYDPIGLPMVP
UniProt Q8IYD8: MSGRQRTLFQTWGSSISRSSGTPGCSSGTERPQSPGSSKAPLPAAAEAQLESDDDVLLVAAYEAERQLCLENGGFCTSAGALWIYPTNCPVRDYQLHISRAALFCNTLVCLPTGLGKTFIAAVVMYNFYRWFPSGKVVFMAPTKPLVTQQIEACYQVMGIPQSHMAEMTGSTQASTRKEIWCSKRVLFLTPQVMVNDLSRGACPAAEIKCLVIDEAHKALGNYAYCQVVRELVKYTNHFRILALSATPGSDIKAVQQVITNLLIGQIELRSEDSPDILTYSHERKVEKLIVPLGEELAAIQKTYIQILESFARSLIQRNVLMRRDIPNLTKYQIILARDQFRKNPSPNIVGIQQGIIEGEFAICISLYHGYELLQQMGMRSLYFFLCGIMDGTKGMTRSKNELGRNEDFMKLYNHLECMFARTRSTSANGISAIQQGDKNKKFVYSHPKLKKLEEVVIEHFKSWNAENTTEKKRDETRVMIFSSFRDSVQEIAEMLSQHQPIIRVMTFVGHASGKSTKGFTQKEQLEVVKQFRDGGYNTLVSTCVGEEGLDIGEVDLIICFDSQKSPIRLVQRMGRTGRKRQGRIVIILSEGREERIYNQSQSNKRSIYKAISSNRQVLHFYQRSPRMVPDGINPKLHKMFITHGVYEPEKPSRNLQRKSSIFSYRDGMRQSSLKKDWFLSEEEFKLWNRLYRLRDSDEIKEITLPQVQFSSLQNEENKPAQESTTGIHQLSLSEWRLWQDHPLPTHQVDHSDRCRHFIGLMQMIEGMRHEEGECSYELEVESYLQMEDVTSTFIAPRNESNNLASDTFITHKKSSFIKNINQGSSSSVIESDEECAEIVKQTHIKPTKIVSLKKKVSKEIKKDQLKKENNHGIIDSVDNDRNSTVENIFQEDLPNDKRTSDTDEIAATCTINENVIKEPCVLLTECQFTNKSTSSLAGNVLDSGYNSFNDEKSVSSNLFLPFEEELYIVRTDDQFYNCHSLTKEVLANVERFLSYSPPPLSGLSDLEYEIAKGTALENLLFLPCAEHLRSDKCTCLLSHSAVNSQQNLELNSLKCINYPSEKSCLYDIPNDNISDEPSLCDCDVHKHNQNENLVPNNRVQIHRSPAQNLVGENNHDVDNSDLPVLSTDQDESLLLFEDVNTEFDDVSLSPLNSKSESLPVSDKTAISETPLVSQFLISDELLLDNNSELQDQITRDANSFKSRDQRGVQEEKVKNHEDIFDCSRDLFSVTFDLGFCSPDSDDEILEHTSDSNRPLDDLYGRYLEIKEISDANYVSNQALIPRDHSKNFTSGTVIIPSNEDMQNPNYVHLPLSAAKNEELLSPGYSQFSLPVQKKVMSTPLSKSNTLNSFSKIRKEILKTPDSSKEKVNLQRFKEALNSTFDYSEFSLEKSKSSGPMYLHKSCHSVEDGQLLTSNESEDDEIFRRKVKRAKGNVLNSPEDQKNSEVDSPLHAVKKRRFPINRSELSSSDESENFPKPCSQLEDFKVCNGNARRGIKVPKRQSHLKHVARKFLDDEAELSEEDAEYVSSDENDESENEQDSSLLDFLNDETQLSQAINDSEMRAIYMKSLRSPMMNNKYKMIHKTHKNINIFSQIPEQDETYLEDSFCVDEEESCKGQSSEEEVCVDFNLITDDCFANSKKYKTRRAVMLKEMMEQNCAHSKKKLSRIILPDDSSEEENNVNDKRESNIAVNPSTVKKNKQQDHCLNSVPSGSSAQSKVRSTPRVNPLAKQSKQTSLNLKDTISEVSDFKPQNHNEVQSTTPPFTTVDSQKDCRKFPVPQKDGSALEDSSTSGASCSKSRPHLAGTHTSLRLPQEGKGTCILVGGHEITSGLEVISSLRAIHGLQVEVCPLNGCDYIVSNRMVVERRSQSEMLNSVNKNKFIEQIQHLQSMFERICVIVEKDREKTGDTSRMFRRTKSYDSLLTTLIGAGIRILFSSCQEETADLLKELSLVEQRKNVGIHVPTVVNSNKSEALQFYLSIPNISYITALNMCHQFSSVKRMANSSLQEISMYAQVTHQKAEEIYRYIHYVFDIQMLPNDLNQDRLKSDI
UniProt Q86XK2: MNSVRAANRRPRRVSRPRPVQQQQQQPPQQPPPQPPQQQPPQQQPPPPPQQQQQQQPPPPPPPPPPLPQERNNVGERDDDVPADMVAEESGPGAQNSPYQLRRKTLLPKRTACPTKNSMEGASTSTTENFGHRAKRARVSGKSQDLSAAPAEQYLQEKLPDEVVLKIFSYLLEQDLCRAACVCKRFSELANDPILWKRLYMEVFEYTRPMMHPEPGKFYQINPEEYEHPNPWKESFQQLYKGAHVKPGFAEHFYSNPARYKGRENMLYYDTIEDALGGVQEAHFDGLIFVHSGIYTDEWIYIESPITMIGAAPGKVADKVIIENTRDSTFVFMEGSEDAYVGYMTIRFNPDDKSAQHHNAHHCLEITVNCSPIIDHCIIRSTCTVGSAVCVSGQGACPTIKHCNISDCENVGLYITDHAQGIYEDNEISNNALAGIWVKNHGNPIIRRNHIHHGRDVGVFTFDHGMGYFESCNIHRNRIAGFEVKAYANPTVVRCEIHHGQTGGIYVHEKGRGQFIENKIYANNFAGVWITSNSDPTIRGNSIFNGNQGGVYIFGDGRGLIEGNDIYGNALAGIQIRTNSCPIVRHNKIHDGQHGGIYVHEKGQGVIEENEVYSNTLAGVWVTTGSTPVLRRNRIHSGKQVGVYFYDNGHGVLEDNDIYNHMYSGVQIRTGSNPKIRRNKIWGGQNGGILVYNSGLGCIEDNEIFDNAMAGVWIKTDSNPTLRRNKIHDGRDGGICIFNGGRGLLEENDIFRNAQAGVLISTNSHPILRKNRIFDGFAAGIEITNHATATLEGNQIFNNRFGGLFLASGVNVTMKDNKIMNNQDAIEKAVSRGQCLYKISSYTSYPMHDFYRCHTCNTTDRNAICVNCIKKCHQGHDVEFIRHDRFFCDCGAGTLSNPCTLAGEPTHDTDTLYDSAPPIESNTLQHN
UniProt Q86WR7: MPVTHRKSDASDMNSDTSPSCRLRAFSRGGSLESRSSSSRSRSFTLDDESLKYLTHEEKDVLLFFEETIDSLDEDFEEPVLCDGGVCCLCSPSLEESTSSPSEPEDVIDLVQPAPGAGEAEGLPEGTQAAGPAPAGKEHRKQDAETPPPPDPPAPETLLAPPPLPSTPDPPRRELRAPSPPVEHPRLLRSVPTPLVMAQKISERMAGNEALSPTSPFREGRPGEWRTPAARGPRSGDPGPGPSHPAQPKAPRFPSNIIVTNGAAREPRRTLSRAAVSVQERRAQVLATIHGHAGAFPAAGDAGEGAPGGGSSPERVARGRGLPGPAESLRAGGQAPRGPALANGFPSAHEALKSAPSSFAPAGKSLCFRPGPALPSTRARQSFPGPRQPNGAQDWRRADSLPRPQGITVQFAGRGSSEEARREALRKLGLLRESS
UniProt Q8N350: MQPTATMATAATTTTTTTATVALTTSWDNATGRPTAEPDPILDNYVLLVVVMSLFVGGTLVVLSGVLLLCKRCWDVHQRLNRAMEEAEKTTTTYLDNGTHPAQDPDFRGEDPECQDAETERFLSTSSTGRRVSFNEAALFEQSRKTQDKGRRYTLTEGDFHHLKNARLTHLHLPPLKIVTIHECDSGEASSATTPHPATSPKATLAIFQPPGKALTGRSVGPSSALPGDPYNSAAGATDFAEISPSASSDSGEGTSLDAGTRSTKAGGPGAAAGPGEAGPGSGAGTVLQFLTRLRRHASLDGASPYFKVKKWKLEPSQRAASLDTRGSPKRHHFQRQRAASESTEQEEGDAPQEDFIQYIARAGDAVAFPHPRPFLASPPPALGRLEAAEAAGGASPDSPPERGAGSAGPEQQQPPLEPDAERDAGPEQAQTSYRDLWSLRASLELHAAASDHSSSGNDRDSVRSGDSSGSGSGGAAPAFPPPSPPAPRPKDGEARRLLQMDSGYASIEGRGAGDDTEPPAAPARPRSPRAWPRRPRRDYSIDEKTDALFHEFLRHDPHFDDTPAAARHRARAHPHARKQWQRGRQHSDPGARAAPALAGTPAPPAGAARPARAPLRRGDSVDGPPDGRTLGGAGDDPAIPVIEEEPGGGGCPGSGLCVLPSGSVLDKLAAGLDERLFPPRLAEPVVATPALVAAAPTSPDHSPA

Compound: CCc1cnccc1C(=O)Nc1cc2c(cc1F)NC(=O)CC2
Test: melting temperature shift (DMSO Tm minus MBE1-treated Tm) in cellular thermal proteome profiling; higher = less thermal stabilization by MBE1 (negative = stabilized by MBE1)
Details: A375

Target	melting temperature shift (MBE1 concentration: 100 nM) [°C]	melting temperature shift (MBE1 concentration: 1 uM) [°C]
TTC9C (UniProt Q8N5M4)	-0.104	-0.666
KIAA2013 (UniProt Q8IYS2)	-3.52	-3.76
UniProt Q8N6M3	-0.577	0.424
OTUD6B (UniProt Q8N6M0)	-1.21	-0.348
ANKRD13A (UniProt Q8IZ07)	0.885	-0.354
UniProt Q8IXQ5	-0.964	-0.179
GLCCI1 (UniProt Q86VQ1)	-0.262	-2.93
ZDHHC17 (UniProt Q8IUH5)	-0.951	0.295
CMIP (UniProt Q8IY22)	-1.49	0.214
UniProt Q8IVV7	-1.17	-0.293
ZADH2 (UniProt Q8N4Q0)	-0.825	0.845
RHOT2 (UniProt Q8IXI1)	0.818	-0.0611
UniProt Q8IV63	-1.98	-3.48
UniProt Q8IYD8	-0.249	-2.13
CARM1 (UniProt Q86X55)	-0.556	-0.0427
UniProt Q86XK2	-0.908	1.15
UniProt Q8IYH5	-1.42	-1.15
PROSER2 (UniProt Q86WR7)	0.366	-0.653
MPP5 (UniProt Q8N3R9)	-1.34	-0.928
DCP2 (UniProt Q8IU60)	-0.912	-1.87
SMC5 (UniProt Q8IY18)	0.33	-0.0488
UniProt Q8N350	-3.14	1.71
VRK2 (UniProt Q86Y07)	0.904	-0.311
